Laboratory results as given in publication PMC10070344.
These are yes or no findings as the source states them, for the method shown. In cells and extracts the contact can be indirect. Some results given as binding are weak or reduced against the parent protein; the word gives no strength.

Protein sequences, listed by entry. Tags and fused reporters are not part of them. Lines headed by an entry give the natural chain unless they say otherwise; changes in a name come on top.
UniProt P40337: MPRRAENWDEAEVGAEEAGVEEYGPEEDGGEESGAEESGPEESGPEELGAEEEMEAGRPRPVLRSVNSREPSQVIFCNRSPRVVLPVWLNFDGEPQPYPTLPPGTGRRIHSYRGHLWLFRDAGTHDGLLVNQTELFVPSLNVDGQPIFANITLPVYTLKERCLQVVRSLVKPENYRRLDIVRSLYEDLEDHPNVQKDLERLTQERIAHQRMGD

Columns and labels:
[1] = target: FLAG-VHL (human) (UniProt P40337); assay: co-IP; cells infected with indicated plasmids; lysates immunoprecipitated with anti-FLAG affinity gel, western blot; with or without depletion of PIN1 or ATRA
[2] = target: pVHL S80A (human) (UniProt P40337); assay: co-IP; cells transfected with indicated plasmids; lysates (NETN buffer) precipitated with S-protein agarose, western blot; some with CDK1 shRNA or RO-3306 for 24 h
[3] = target: pVHL WT (precipitated with S-protein agarose) (human) (UniProt P40337); assay: as above

B1: WD repeat and SOCS box-containing protein 1 (enzyme, UniProt Q9Y6I7 1-421)
chain: MASFPPRVNEKEIVRLRTIGELLAPAAPFDKKCGRENWTVAFAPDGSYFAWSQGHRTVKLVPWSQCLQNFLLHGTKNVTNSSSLRLPRQNSDGGQKNKPREHIIDCGDIVWSLAFGSSVPEKQSRCVNIEWHRFRFGQDQLLLATGLNNGRIKIWDVYTGKLLLNLVDHTEVVRDLTFAPDGSLILVSASRDKTLRVWDLKDDGNMMKVLRGHQNWVYSCAFSPDSSMLCSVGASKAVFLWNMDKYTMIRKLEGHHHDVVACDFSPDGALLATASYDTRVYIWDPHNGDILMEFGHLFPPPTPIFAGGANDRWVRSVSFSHDGLHVASLADDKMVRFWRIDEDYPVQVAPLSNGLCCAFSTDGSVLAAGTHDGSVYFWATPRQVPSLQHLCRMSIRRVMPTQEVQELPIPSKLLEFLSYRI
binding [1]: binds
binding [2]: no binding
binding [3]: binds
